These are yes or no findings as the source states them, for the method shown. In cells and extracts the contact can be indirect. Some entries that bind do so weakly or less than the wild type.
Legend:
FcεRIγ-HA = FcεRIγ-HA (UniProt P20491); test: co-IP; anti-HA magnetic agarose beads on lysates of unstimulated BMMC transfected with Siglec-8-FLAG and FcεRIγ-HA; blot with anti-FLAG
[1] = target: Siglec-8 expressed in bone marrow mast cells from Siglec-8 transgenic mice (human) (UniProt Q9NYZ4); test: co-IP; anti-Siglec-8 polyclonal rabbit antibody and Protein A/G beads on S8-BMMC lysate, isotype IP as control; blot with anti-Lyn

By UniProt entry, the sequences of proteins in these tests, tags left out. Residues count along the entry.
UniProt P20491, residues 19-86: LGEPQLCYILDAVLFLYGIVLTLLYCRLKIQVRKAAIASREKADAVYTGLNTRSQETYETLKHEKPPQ
UniProt Q9NYZ4, residues 17-499: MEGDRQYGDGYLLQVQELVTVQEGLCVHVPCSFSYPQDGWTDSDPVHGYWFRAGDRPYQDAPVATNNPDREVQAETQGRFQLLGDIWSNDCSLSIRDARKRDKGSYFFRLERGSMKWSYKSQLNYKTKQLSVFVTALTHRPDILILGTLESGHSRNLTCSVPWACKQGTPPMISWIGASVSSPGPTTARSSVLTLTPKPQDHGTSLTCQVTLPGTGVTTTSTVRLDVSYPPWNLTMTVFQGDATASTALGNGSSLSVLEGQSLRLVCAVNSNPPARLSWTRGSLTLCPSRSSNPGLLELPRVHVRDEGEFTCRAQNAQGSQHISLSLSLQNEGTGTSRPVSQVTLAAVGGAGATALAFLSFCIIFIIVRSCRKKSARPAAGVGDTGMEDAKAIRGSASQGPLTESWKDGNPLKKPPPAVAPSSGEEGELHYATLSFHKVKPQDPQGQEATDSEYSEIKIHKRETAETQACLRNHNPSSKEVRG
UniProt P25911: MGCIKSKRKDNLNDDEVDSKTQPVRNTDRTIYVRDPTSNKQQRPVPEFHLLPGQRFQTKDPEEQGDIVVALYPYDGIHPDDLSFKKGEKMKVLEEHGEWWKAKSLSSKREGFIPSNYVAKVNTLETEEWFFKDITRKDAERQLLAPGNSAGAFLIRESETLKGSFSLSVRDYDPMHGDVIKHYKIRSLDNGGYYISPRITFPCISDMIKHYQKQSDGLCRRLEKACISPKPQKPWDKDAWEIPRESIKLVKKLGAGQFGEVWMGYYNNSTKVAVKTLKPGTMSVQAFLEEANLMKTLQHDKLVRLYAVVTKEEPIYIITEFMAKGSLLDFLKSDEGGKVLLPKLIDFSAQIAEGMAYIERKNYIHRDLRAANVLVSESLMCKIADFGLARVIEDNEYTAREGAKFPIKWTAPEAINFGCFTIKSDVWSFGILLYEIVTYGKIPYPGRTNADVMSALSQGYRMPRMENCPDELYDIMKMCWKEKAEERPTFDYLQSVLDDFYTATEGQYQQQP

| Substance | binding (FcεRIγ-HA) | binding [1] |
| --- | --- | --- |
| wild-type full-length Siglec-8 fused with an N-terminal FLAG tag (from UniProt Q9NYZ4 17-499) (receptor) | binds | – |
| Src kinase Lyn (from UniProt P25911 1-512) (enzyme) | – | binds |
